Source: paper PMC10781698
These are yes or no findings as the source states them, for the method shown. In cells and extracts the contact can be indirect. Some entries that bind do so weakly or less than the wild type. For some assays here: Tags and fused reporters may be left off the sequences shown.

Key:
[1] = target: T1, CCDC88B (mouse (endogenous in thymus, BI-141 T cells and BMDCs)) (UniProt Q4QRL3); assay: co-IP; BMDC lysates (20 mM HEPES pH 7.4, 300 mM NaCl, 1% NP-40); IP overnight with anti-CCDC88B anti-serum, protein A/G magnetic particles; blot for RASAL3 or ARHGEF2; Ccdc88b^Mut BMDCs as control
T1 sequence: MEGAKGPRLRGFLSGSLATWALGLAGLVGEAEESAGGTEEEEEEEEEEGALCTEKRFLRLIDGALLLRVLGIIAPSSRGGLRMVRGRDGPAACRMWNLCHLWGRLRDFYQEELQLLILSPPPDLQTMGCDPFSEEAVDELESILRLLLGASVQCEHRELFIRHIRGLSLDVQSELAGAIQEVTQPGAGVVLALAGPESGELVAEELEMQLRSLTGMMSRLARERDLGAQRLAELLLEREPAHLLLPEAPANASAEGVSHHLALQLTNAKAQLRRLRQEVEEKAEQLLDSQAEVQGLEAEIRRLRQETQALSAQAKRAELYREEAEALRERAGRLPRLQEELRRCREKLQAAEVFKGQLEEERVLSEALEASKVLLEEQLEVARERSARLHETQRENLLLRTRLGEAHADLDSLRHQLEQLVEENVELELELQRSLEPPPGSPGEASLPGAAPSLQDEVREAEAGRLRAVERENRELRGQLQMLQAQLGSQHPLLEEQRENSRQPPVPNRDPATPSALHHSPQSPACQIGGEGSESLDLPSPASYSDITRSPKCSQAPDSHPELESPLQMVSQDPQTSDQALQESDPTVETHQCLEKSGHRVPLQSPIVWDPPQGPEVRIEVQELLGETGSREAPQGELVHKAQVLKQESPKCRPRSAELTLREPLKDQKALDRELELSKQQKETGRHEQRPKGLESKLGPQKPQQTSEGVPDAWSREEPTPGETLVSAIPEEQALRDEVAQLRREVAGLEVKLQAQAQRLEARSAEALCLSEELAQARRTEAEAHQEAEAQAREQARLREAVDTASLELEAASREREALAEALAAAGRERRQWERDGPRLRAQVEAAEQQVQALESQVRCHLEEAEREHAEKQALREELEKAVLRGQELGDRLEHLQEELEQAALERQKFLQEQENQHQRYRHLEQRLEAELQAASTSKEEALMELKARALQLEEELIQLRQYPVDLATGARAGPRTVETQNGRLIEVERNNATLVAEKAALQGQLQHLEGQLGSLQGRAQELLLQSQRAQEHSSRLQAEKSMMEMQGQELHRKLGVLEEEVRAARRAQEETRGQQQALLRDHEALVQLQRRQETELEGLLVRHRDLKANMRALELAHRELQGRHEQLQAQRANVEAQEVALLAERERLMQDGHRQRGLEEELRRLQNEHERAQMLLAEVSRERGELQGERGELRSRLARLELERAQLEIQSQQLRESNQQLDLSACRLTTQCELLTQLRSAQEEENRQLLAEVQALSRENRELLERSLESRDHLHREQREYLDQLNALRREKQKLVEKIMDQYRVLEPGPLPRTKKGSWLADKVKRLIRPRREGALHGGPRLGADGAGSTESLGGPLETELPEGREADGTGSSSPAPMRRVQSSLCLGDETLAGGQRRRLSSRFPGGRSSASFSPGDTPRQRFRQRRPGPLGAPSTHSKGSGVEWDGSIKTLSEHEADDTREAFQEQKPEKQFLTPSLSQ

HA-CCDC88B = target: T2, HA-CCDC88B (UniProt Q4QRL3); assay: co-IP; HEK293T transiently co-transfected pairwise; RIPA lysis buffer (20 mM Tris-HCl pH 7.5, 200 mM NaCl, 1% NP-40); IP with anti-FLAG and blot with anti-HA, or IP with anti-CCDC88B anti-serum and blot with anti-FLAG
T2 sequence: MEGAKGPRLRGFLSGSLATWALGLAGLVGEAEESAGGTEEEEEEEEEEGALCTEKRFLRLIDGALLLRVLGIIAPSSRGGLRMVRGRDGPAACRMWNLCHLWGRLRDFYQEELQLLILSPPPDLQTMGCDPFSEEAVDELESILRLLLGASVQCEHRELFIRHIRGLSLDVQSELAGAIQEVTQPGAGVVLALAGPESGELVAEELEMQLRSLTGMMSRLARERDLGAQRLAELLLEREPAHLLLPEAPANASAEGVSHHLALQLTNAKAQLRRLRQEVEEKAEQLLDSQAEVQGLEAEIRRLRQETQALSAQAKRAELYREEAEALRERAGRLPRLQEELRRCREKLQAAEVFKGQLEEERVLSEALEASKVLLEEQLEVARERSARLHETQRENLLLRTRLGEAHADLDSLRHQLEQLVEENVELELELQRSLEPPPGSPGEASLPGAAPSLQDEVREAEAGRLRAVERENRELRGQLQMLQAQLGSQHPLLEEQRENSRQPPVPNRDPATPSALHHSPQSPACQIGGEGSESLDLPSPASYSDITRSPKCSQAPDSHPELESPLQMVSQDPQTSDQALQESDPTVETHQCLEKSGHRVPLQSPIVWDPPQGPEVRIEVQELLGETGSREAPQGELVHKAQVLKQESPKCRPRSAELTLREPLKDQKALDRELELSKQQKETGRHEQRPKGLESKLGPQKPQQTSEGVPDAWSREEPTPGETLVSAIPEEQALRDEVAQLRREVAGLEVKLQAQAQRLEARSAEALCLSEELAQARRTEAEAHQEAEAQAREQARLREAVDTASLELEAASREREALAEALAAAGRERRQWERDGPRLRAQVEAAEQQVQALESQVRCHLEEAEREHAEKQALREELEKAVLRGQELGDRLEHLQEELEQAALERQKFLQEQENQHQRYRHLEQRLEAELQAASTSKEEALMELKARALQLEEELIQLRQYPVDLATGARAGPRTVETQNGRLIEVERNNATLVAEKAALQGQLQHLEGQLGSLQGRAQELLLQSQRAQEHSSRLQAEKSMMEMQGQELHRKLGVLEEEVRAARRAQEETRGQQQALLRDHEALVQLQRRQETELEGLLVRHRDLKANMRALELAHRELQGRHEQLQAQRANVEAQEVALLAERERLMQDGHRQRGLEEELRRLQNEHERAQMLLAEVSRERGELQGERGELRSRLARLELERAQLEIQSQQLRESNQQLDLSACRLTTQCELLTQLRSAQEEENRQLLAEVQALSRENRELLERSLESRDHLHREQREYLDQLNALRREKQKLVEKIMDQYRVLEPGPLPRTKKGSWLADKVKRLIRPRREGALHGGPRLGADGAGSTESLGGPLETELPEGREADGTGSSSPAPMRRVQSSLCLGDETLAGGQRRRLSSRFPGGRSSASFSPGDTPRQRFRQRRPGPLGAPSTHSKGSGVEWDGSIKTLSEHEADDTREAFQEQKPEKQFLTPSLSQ

Binder | binding [1] | binding (HA-CCDC88B)
Rho/Rac Guanine Nucleotide Exchange Factor 2 (ARHGEF2) (protein, UniProt Q60875 1-985) MSRIESLTRARIDRSKEQATKTREKEKMKEAKDARYTNGHLFTTISVSGMTMCYACNKSITAKEALICPTCNVTIHNRCKDTLANCTKVKQKQQKAALLRNNTALQSVSLRSKTTTRERPTSAIYPSDSFRQSLLGSRRGLSSLSLAKSVSTTNIAGHFNDESPLGLRQILSQSTDSLNMRNRTLSVESLIDEGVEVFYNELMSDFEMDEKDFEADSWSLAVDSSFLQQHKKEVMKKQDVIYELIQTELHHVRTLKIMTRLFRTGMLEELQMEPEVVQGLFPCVDELSDIHTRFLNQLLERRRQALCPGSTRNFVIHRLGDLLISQFSGSNAEQMRKTYSEFCSRHTKALKLYKELYARDKRFQQFIRKMTRSAVLKRHGVQECILLVTQRITKYPVLINRILQNSHGVEEEYQDLASALGLVKELLSNVDQDVHELEKEARLQEIYNRMDPRAQTPVPGKGPFGRDELLRRKLIHEGCLLWKTATGRFKDVLLLLMTDVLVFLQEKDQKYIFTSLDKPSVVSLQNLIVRDIANQAKGMFLISSGPPEMYEVHAASRDDRTTWIRVIQQSVRLCPSREDFPLIETEDKAYLRRIKTKLQQKNQALVELLQKNVELFAEMVHFQALKAGFVGMPPPALPRGLFRLESFESLRGERLLKDALREVEGLKDLLLGPCVDLPMTSREPALPLDSDSGSCPGVTANGEARTFNGSIELCRADSDSSQKDRNGNQLRSPQEEVLQPLINLYGLLHGLQAVVVQQERLMEALFPEGPERWEKLSRANSRDGEAGRAAVASVTPEKQATELALLQRQHTLLQEELRRCQRLGEERATEAGSLEARLRESEQARALLEREAEEIRRQLAALGQNEPLPAEAPWARRPLDPRRRSLPAGDALYLSFNPPQPSRGHDRLDLPVTVRSLHRPFDDREAQELGSPEDRLQDSSDPDTGSEEEVSSRLSPPHSPRDFTRMQDIPEETESRDGEPTASES | binds | –
RASAL3-FLAG (protein, UniProt Q8C2K5 1-1041) MKPECGQTMFRTFWSRSRDSSAMDPPLQSEEDSQTQPSLPSPLTSYRWHTGGSGEKAAGGFRWGRFAGWGRALSHQEPMVNSQPAPRSLFRRVLSAPPKESRSNRLRFSKTLWGRHKNVAPLEPKPNPKAPEPELELVADPDLPVAQIPEPPTPDMPVWNIDGFTLLEGKLVMLGEEEGPRQIRVGSASSENSMQAALGNLKDAVRTPGKTEPEAAGSNQVHNVRKLLKRLKEKKRAKSELGAYTPRDGPPSALGSRESLATLSELDLGAERDVRVWPLHPSLLGEPYCFQVTWAGGSLCFSCRSSAERDRWIEDLRRQFQPSQDNVERQEMWLTVWVHEAKGLPRATVPGVRAELWLDGALLARTAPRAGPGQLFWAERFHFEALPPARRLSLRLRSAGPAGATVGRVVLELDEVSIPRAPAAGLERWFPVLGAPAGAVLRARIRVRCLRVLPSERYKELAEFLTFHYARLCGALEPALSAQAKEELAAAMVRVLRATGRAQALVTDLGTAELARCGGREALLFRENTLATKAIDEYMKLVAQEYLQDTLGQVVRCLCASTEDCEVDPSKCPTPELPKHQARLRDSCEEVFENIIHSYNCFPAELGSVFSSWREACKARGSEALGPRLVCASLFLRLLCPAILAPSLFGLAPEHPAPGPARTLTLIAKVIQNLANCAPFGEKEAYMAFMNSFLEDHGPAMQHFLDQVATVDADTTPSGYQGSGDLALQLAVLHVQLCTIFAELDQKTQDSLEPLPTILRAIEEGRPVPVSVPMRLPRISTQVQSSFFSGEKPGFLAPRDLPKHTPLISKSQSLRSFQGAGSWASRRPDEERPQRRPRPVLRTQSVPARRPTHRRPSAGSKPRPKGSLRMGPAPCGRAWTRASASLPRKPSVPWQRQMDQPGDRYQTTGTHRPVGKLAEIQCEVAIFREAQKALSLLVESLSTQVQALKEQQEHFRCQLQDLYSRLGAGISKLDSKGGLPSNGSHRLKSLEQRLTEMECSQDQLRDSLQSLQLLSKTPGSRSQPLPLKAPCVNGADLSMGT | – | binds
